# Source: PubChem BioAssay AID1508600 (Functional Genomics Laboratory (NCATS/FGL), 2020)
# The campaign covered roughly 53,000 sequences. About 3,700 (7%) were called active.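 The calls were made as follows: active = gene knockdowns whose robust z-score for IL-1 alpha signal is at least 2 or at most -2, so actives lie on both sides; inactive = the rest.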 The list shows a part of the results.
# Assay: Components of the Cytosolic LPS Sensing Pathway: Gene Identification via Genome-wide siRNA Screen;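 also: robust z of the log signal after scaling to non-targeting control siRNA wells of the plate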
# Details: RAW264.7 macrophages, IL-1a HTRF, actives lie on both sides, screened at 100 nM (by protocol), cells primed 5 h with Pam3CSK4 first
# How it was run: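 Read-out: IL-1a HTRF on supernatant, divided by plate negative-control median ×100, log-transformed and converted to robust z-score. Cells were RAW264.7 given 100 nM siRNA, Pam3CSK4-primed 5 hours, then LipidA-transfected 24 hour.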
row,Sequence,z-score
1,GCUCAGAAAUUAAUCAUCATT against C330011M18Rik,inactive: -0.793
2,GGAAGAGUGUACCAGUGUUTT against Ccdc80,inactive: 0.559
3,GCUAUUGAUGAACCUAACATT against Trpc5,inactive: -0.342
4,GGAAAUCUCACGUAAUUAATT against Anxa9,inactive: -0.885
5,GAUUCCACGCCAAUUCAUCTT against Ccl3,inactive: 1.52
6,GGCAUAAGCCAUUCAGCCGTT against Fastkd2,inactive: -0.56
7,CCUGGACCCAUGAAGUCUUTT against Ahnak,inactive: 0.911
8,GGCUGCUCGAAUCAGUCAUTT against Slc27a3,inactive: 0.237
9,CCCAGCUCCUCCAAAUAGUTT against Rwdd3,inactive: -0.149
10,GACCUUGAAGAAGCCAAUCTT against Entr1,inactive: 0.095
11,CGCUUAAAGACCUCAUCUCTT against Ap1b1,inactive: 0.169
12,GGCCUUCUAUUUUGUCAAUTT against Limd1,inactive: 0.403
13,GGGAGUCCUGAAGGACUACTT against Lgmn,inactive: -0.0947
14,CCAAGACCGGUUAAAAGAGTT against Myo1e,inactive: -0.252
15,GCCACCUUCCAAGCUCAAATT against H2bu2,inactive: 0.48
16,GGUUUCUGUCCAGAUAAAATT against Ykt6,inactive: -0.535
17,GGCGAAGGAAGAGUGUGAATT against Sox8,inactive: -0.668
18,GGCAACUUUUUACACAAAGTT against Vmn1r14,inactive: 1.74
19,GCGAGGAGAGUGUGUUUUCTT against Bop1,active: 2.08
20,GGCAAAAUUGGCAAAGAAUTT against Tollip,inactive: 0.507
21,GGGAUUGUUCGAGUUGUCUTT against Phtf2,inactive: -1.41
22,GGAAAACACACUUUUCUUUTT against Thap2,inactive: -0.119

row,Sequence,z-score
1,GGUGUUAUCAGAAUUCAGATT against Cars,active: 2.6
2,GGCACACCUUUUGUUAGUGTT against Ywhag,inactive: -1.94
3,CCUAAUAAAAUCGAAACAGTT against Alox8,inactive: -0.415
4,GGAACCUUCUUCCUGAUGATT against Oprm1,inactive: -0.797
5,GGGCUCGUCAUGAUAUUUGTT against Rnf41,inactive: 0.166
6,GGGUGAUGUUCUUCCUGGATT against Gpcpd1,inactive: 0.275
7,GGUUUUUUUGCUAAUUAGCTT against Chid1,inactive: 0.472
8,CGUGUGGUAACUUGAAGGGTT against Sp140,inactive: -0.456
9,GGGACUGUGGAUGGAAUGUTT against Cldn14,inactive: 0.144
10,CGUUGUGAGGUUAUACGACTT against Tbc1d20,inactive: -0.862
11,GGAACACAGUUCUCUGAGATT against Ighmbp2,inactive: -0.68
12,GGUACAAAGACUGACGAGUTT against Gnptg,inactive: 0.00278
13,CCUUACUUGUUCUCAUUUGTT against Spsb1,inactive: 0.971
14,CCAACAUGCUCUAUCUUUUTT against Oacyl,inactive: 0.434
15,CGUAUGUAUGCCAACCUGGTT against Arhgap39,inactive: -1.05
16,ACAUGGGAGUAUUUGAUCCTT against Cnih4,inactive: -1.23
17,GGAGGUUCAGAAAUUUGUCTT against Nhp2,inactive: -0.796
18,GGGCUCAACAGUUUCAACCTT against Mrpl4,inactive: 1.17
19,CGAAUAGUUCCAGAAGACGTT against Cass4,inactive: 1.86
20,GGACCUUUAAAGCUAAGCUTT against Ccn5,inactive: -1.4
21,CCAAAUGGUGGUGCUGAGUTT against Igsf5,inactive: -1.87
22,GGCAACUCUUAAAAAACCATT against Igfbpl1,inactive: -0.665

row,Sequence,z-score
1,GCAGGGUGUCUACUUGUUGTT against Gata4,inactive: -0.129
2,GCUGCAUAGAUUCCAUAAUTT against Lxn,inactive: 0.468
3,GUCUUUAACUCUCCUAUGUTT against 2310034C09Rik,inactive: -0.809
4,CGAGUUCAUCAAAAAGGAATT against Kansl1l,inactive: 0.708
5,GGCAUAGGAAAAACAUGAATT against C1qtnf1,inactive: -1.66
6,GGUUUCUAUUGUGUUCAUUTT against Birc2,inactive: -0.771
7,GGAAGUUUAGUCUCAAAACTT against Csnk1d,inactive: 1.64
8,GGCUCAAGAAACUGGAGCUTT against Usp21,inactive: 1.51
9,AAUGACCUUGACAACAUUUTT against Pdp2,inactive: 1.89
10,GGACAGAAAUGGUAAAGAATT against Csde1,inactive: -0.994
11,GGAGCACUUGAUUAAACAUTT against Syt10,inactive: 1.49
12,GGUUCAGACACCACUUCAGTT against Bgn,active: 2.56
13,GGUACUAAAUCAAACAUCCTT against Angpt1,inactive: 0.578
14,GGACAUCCCAGACAAUUUUTT against Lxn,inactive: -0.986
15,CCGAGAUGAUUAUUCAUAATT against Slc17a6,inactive: -0.327
16,GCUUCCUCGUAUCUACACCTT against Phb,inactive: 1.92
17,GGAAUGCAAAAAACUCUGGTT against Gzmg,inactive: 0.906
18,CGUUCUCUUGAAAUAAGCCTT against Pogk,inactive: -0.147
19,GGAACUGACUGCCUAUUCCTT against Gnb3,inactive: 1.08
20,GCCUUUACUGGAUUCAUUGTT against Acadm,active: 2.53
21,GGUGAACAUUAACAACAGUTT against Ngf,inactive: -1.47
22,GGUACAGUAUGAUACUCACTT against Olfr678,inactive: 0.982

row,Sequence,z-score
1,CGUUUUCAGAGAUGUGCGCTT against Cmtm5,inactive: -1
2,GCAAACCAUGCCUAAUGGATT against Meak7,inactive: 1.68
3,GGAUGUGGGUGGAUAUCAUTT against Sit1,inactive: 0.145
4,GGACAAAGUACAUUUAUGGTT against Il7r,inactive: -1.39
5,GGAAGGUAGUGCUAAUCAGTT against Neil2,inactive: -0.622
6,GCUGGUUACAUAAAGCUACTT against Slc25a51,inactive: 0.0694
7,GGGAAGAAAUAAAAGAAACTT against Haus7,inactive: -0.841
8,GGAAAAACAAGAAAGGGAATT against Cdyl,inactive: -0.411
9,GGAAAUGUGGAGAGAAAAUTT against P2ry4,inactive: 1.02
10,CGUGGCUCAAAUUUUCAACTT against Cab39,inactive: 1.5
11,CCAUUGCAGCAUACUGUCCTT against Serpina1b,inactive: -0.402
12,CCUACUGGAGUCUCCUCUUTT against Tmem116,inactive: 0.36
13,GGAGCUAUGAUGGCGAUUUTT against Tmtc4,inactive: -0.272
14,GCCAACCAAAACCUAAGCATT against Gjc1,inactive: -1.44
15,GGUGGAACAAGAAGAGUCCTT against Zkscan3,inactive: -0.826
16,GGAUGUCCUGAAAGUAGUUTT against Plscr1,inactive: -1.03
17,GCAGGUUCGAAUUCAAGGATT against Gria4,inactive: 0.483
18,CGACGACGAGUUUCUCCAUTT against Timm29,inactive: -1.86
19,GGACGGUCCUCUUAAAAGATT against Chat,inactive: -0.394
20,GGACCCUGAUGAGAUGAAUTT against Gcg,inactive: -0.687
21,GGCCAAAGCCAGAAUCUCATT against Zfp281,active: 3.07
22,GGUGGACUAUCCUAAGCACTT against Pdzd4,inactive: -1.18

row,Sequence,z-score
1,ACAUUUUCCGAGGCUUGGUTT against Rtn4rl2,inactive: -0.936
2,GGUAUUGAACCAUGGCUUATT against Mcts1,inactive: -0.456
3,GGGUUCAGAAUAGAAAGAUTT against Tmigd1,inactive: -1.28
4,GGCUGGAUAAAAAUAACUUTT against Heyl,inactive: 0.299
5,GGAAUGGUAGAAGCAACAGTT against Kcnj5,inactive: -0.844
6,GGCUGGUGUAAUCGAAACATT against Ttc39c,inactive: 0.0501
7,GCAAUCAACAUUGAGAUGUTT against Rufy2,inactive: -0.15
8,GUUAGAUGCCCUCAAGUUCTT against Trappc6a,inactive: -0.857
9,GCUCAUUAACGAGAAAGUGTT against Atxn7l2,inactive: -0.991
10,GGAUAUACCCUGUUCUAGGTT against Them6,inactive: 0.183
11,GGAGAUCAAUCUAGAUUUGTT against Atpaf1,inactive: 1.05
12,GGAGUGCAGUACAAAGGACTT against Ahsa1,inactive: 0.872
13,GCCUCAGUUAUUUAAUGAATT against Mpp3,inactive: -0.414
14,GGAGCAGGUUACCAGAAAATT against E130114P18Rik,inactive: 0.301
15,GGCAGAGUAAGAGUGCACUTT against Olfr1238,inactive: -0.622
16,GGAACAAAGUUAAAUCCAATT against Vsig1,inactive: -1.31
17,GCAGAAUGUCACUAAGUGCTT against Sdcbp2,inactive: 0.271
18,GGAGACACAGGAGAGAUACTT against Brd8,inactive: 0.241
19,GGCUUUCCGGAGUGAUAGUTT against Scamp3,inactive: -0.696

# As a short view, part of the list above.
row,Sequence,z-score
12,GGAGUGCAGUACAAAGGACTT against Ahsa1,inactive: 0.872
13,GCCUCAGUUAUUUAAUGAATT against Mpp3,inactive: -0.414
14,GGAGCAGGUUACCAGAAAATT against E130114P18Rik,inactive: 0.301
15,GGCAGAGUAAGAGUGCACUTT against Olfr1238,inactive: -0.622
16,GGAACAAAGUUAAAUCCAATT against Vsig1,inactive: -1.31
